## Primary screen of a compound library

Protein sequences, listed by entry. Tags and fused reporters are not part of them.
UniProt E9BF75, entry or part of it: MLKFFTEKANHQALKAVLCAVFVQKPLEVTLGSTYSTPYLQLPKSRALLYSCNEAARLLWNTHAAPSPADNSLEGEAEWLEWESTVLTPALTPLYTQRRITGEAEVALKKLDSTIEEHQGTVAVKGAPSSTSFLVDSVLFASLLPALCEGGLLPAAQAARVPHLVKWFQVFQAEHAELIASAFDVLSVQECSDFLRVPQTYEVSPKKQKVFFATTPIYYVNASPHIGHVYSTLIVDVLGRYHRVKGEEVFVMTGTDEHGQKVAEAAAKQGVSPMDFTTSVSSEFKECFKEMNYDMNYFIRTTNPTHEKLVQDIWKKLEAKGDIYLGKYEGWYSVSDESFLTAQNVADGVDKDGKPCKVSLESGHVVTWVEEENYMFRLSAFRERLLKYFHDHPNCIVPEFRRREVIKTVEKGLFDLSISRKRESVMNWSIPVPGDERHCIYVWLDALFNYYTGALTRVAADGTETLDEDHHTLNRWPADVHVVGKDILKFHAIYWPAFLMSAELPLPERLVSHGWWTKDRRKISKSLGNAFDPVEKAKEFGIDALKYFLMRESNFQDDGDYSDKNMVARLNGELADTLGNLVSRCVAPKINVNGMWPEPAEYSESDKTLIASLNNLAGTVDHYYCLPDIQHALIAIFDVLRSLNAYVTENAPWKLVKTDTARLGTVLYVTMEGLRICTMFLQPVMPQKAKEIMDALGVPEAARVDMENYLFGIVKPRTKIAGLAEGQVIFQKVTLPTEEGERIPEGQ

Results are percentages, as filed.
How 0% and 100% were set is not recorded. Most values in the screen are low, and negative values occur.
Compounds were drawn at random from those tested, without regard to their results.

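Methionyl-tRNA synthetase (putative), Leishmania donovani (UniProt E9BF75). Primary screen of methionyl-tRNA synthetase; the read-out is not stated. The test concentration is not given. Values are per cent inhibition. Size under these conditions: about 68,000 compounds, about 24 of them at 50% or above in at least one test.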

Compound	inhibition
Cc1nc2ccccc2nc1CN1CCCC1Cn1cncn1 (stereo not shown)	11.81%
O=C(CN1CCN(C(=O)Cc2ccc3c(c2)OCCO3)CC1)NC1CC1	3.644%
CNC(=O)c1ccc(C(=O)N2CCC(Nc3cccnn3)CC2)cn1	13.81%
O=C(CCc1ccccc1)N1CCn2cc(Cn3cncn3)nc2C1	12.75%
NCC1CCN(C2CCN(c3ccc(-c4ccco4)cc3)CC2)C1 (stereo not shown)	52.69%
O=C(c1sccc1C1CC1)N1CCN(CC(F)(F)F)CC1	14.04%
c1ccc(CCNc2cccc(C3CCCNC3)n2)cc1 (stereo not shown)	14.84%
COc1c(CNC2CCOc3c(Cl)cccc32)c(C)nn1C (stereo not shown)	7.865%
CCn1nc(C)c(NC(=O)c2cc(NC(=O)C(C)C)n(C)n2)c1C	4.511%
CN1C(=O)C(C)(C)COc2cc(NS(=O)(=O)c3ccccc3)ccc21	8.374%
Cc1cc(C)n(C2CCCN(C(=O)c3ccc(NC4CC4)nc3)C2)n1 (stereo not shown)	11.11%
CCc1noc(CN2C[C@H]3CC[C@@H]2CN(C2Cc4ccccc4C2)C3)n1	11.25%
Cc1nc2n(n1)CC(NCCCc1nc(-c3cccs3)no1)CC2 (stereo not shown)	2.005%
O=C(c1ccno1)N1C[C@@H](F)[C@@H](OCc2nc3ccccc3o2)C1	7.797%
Nc1nc2c(c(NC(=O)Nc3ccccc3)n1)CCCC2	0%
CN(C)c1cc(CNC(=O)CC2CCCCC2)ccn1	9.922%
Cc1cccc(C(C)(C)CNC(=O)CCSc2nnnn2C)c1	1.047%
CN(C)CCOCc1ncn2c1CN(c1ncc(F)cn1)CCC2	18.98%
Cc1nccc([C@H]2C[C@@H]3CCN(S(=O)(=O)N(C)C)C[C@H]3O2)n1	17.47%
CN(C)C(=O)[C@@H]1CCO[C@@H]2CCN(Cc3ccc4c(c3)OCO4)C[C@@H]21	9.013%
CN(C)c1ccc(CC2CCN(c3cnccn3)C2)nn1 (stereo not shown)	13.12%
CN(Cc1ccccc1NCc1ncc[nH]1)C(=O)c1cccs1	0.8065%
COCc1ccccc1CNC(=O)CN1CCC2(CCOC2)C1 (stereo not shown)	2.135%
Cc1nn(C)c2c(N(C)Cc3cccs3)nc(C3CC3)nc12	8.709%
CN(C)C[C@@H]1[C@H]2CN(C(=O)c3cc(=O)[nH]c4ccc(F)cc34)C[C@@H]12	-5.645%
CCCNC(=O)CCC(=O)N1CCC(c2n[nH]c(C3CC3)n2)CC1	8.798%
CN(C)c1cc(CNC(=O)Nc2ccc(S(C)(=O)=O)nc2)ccn1	6.135%
COc1cc2cc(C(=O)NC(C)C(=O)O)n(C)c2c(OC)c1OC (stereo not shown)	12.71%
CN(CCc1ccccc1)Cc1nc(-c2cnccn2)no1	0.5333%
COCCN(CCOC)c1ncccc1I	-1.449%
CC(C)CC1(C(=O)NCc2nncn2C2CC2)CCC1	3.141%
NC(=O)N1CCC(C(=O)NC2CCc3nccn3C2)CC1 (stereo not shown)	16.17%
COc1ccccc1CNC(=O)Cn1ncc2c1c(C)nn2C	16.18%
CCOc1ccc(NC(=O)c2ccc(C#N)cc2C)cc1CO	6.015%
COC(=O)CN1Cc2cc3c(cc2NCCC1=O)OCO3	7.838%
CCc1cnc(CN(C(C)=O)C2CCN(CCc3ccncc3)C2)o1 (stereo not shown)	15.92%
NC(=O)C1Cc2ccccc2CN1CCC(=O)N1CCc2ccccc21 (stereo not shown)	3.323%
CC(Nc1nc(-c2ccccc2)nc2c1CCNCC2)c1cccnc1 (stereo not shown)	26.81%
Cc1ccc(S(=O)(=O)Cc2nnc(C)n2C)cc1	12.47%
Cc1nc(-c2ccncc2)nc(N(C)CCc2ccncc2)c1C	12.63%
NC(=O)c1ccc(N2CCN(Cc3cccc4nsnc34)CC2)nc1	-5.514%
CN(C)C[C@H]1OC[C@@H]2CCN(C(=O)c3ccc[nH]3)C[C@@H]21	7.299%
Cc1ncsc1CCC(=O)N1CCN(CCn2cncn2)CC1	9.363%
c1cnnc(-c2noc(CCN3CCCO3)n2)c1	19.63%
Cc1noc(C)c1C(=O)NCc1ccnc(OCC(F)(F)F)c1	16.33%
Cc1cc(C)c2cc(CNCc3ccc(C)o3)c3nn(C)c(=O)n3c2c1	16.95%
CN(CCc1noc(C2CC2)n1)C(=O)CN1C(=O)COc2ccccc21	10.45%
Cc1cccnc1CN1CCN(C(=O)c2ccn(C(C)(C)C)c2)CC1	-4.45%
CC(C)C(C)(CNC(=O)OC(C)(C)C)NC(=O)c1cnccn1 (stereo not shown)	12.63%
Cc1ncsc1CN1C[C@H](OCc2ccncc2)[C@H]2OCCC[C@H]21	10.65%
COc1c(C2CCCN2CC(=O)Nc2cc(C)no2)c(C)nn1C (stereo not shown)	14.29%
N#Cc1cn(C2CC2)c(=O)n(CC(O)c2ccccc2F)c1=O (stereo not shown)	16.33%
CC(C)(C)c1nc(CN(Cc2ccccc2F)C2CCCCC2)no1	7.581%
CCCN(CCC)C(=O)CN(C)Cc1cnc(C)s1	5.672%
CN(C)C(=O)N1C[C@H]2CN(Cc3cccc(F)c3)C(=O)[C@H]2C1	10.44%
C[C@@H]1CN(C(=O)CCCN2CCCC2)CC[C@@]1(O)C1CCOCC1	11.08%
CC(=O)N1CCCN(C(=O)Cc2ccc3c(c2)OCO3)CC1	17%
Cc1ccc(CN(C)C(=O)CN2CCOC(Cn3cncn3)C2)o1 (stereo not shown)	6.103%
O=C(NCC1CCN(Cc2cc3ccccc3[nH]2)C1)C1CCCCC1 (stereo not shown)	14.66%
CCS(=O)(=O)N1CCN(CC(F)(F)F)CC1	11.8%
CC(C)=CCS(=O)(=O)Cc1ccn(-c2cccc(F)c2)n1	8.424%
N#Cc1cccc(S(=O)(=O)Nc2c(F)cccc2N2CCCC2)c1	18.77%
Cc1nn(C)cc1-c1ccnc(N(C)Cc2noc(C(C)C)n2)n1	16.94%
O=C(Nc1cncc(Br)c1O)c1ccon1	10.65%
CCN1CCC(NC(=O)CN2CCCC(NS(C)(=O)=O)C2)CC1 (stereo not shown)	3.876%
Cc1cc(C)cc(CN2C[C@H]3COC[C@H](N4CCN(C)CC4)[C@H]3C2)c1	15.93%
Cc1n[nH]c(C)c1NC(=O)c1cccc(OCC(F)(F)F)n1	9.774%
CN(Cc1ncc[nH]1)CC1CCOc2ccccc2C1 (stereo not shown)	10.65%
Cc1cc(-c2cnn(CCNC(=O)c3cccnc3)c2C2CC2)on1	11.3%

The values are deposited in ChEMBL (CHEMBL3988442, “University of Dundee, Small-Polar-MMV Screening Library” (2021)).